Reference: article PMC6199744, “Development of Chemical Proteomics for the Folateome and Analysis of the Kinetoplastid Folateome” (ACS Infectious Diseases, 2018)
Read-outs that look alike come from different tables or passages of the source. This continues a long series; more values of the same kind are listed elsewhere.

Test system: T. brucei lysate proteins
Format: binding, Trypanosoma brucei

## Nc1nc2cccc(-c3ccccc3)c2n1Cc1ccc(Cl)c(Cl)c1 [compound 3]
Protein TB09.211.2740 GIM5B PROTEIN, vehicle control = 1
  fold change: 0.9
Protein TB09.211.4760 METACASPASE 5, PUTATIVE, vehicle control = 1
  fold change: 1.4
Protein TB11.03.0530 HY[…], CONSERVED, vehicle control = 1
  fold change: 0.97
Protein TB427TMP.01.2460 HY[…], CONSERVED, vehicle control = 1
  fold change: 0.95
Protein TB427TMP.01.3110 HEAT SHOCK PROTEIN 70, vehicle control = 1
  fold change: 0.98
Protein TB427TMP.01.4750 […] 1 GAMMA, PUTATIVE, vehicle control = 1
  fold change: 0.65
Protein TB427TMP.01.6180 HY[…], CONSERVED, vehicle control = 1
  fold change: 0.94
Protein TB427TMP.01.7290 NUDIX HYDROLASE, CONSERVED, vehicle control = 1
  fold change: 0.99
Protein TB427TMP.01.8560 HY[…], CONSERVED, vehicle control = 1
  fold change: 0.98
Protein TB427TMP.02.2410 CLATHRIN COAT ASSEMBLY PROTEIN, PUTATIVE, vehicle control = 1
  fold change: 1
Protein TB427TMP.02.4300 HY[…], CONSERVED, vehicle control = 1
  fold change: 0.92
Protein TB427TMP.03.0030 ABC TRANSPORTER, PUTATIVE, vehicle control = 1
  fold change: 0.86
Protein TB427TMP.160.3780 HY[…], CONSERVED, vehicle control = 1
  fold change: 0.95
Protein TB427TMP.160.4620 INOSITOL-1(OR 4)-MONOPHOSPHATASE, PUTATIVE, vehicle control = 1
  fold change: 0.82
Protein TB427TMP.211.4550 60S RIBOSOMAL PROTEIN L12, PUTATIVE, vehicle control = 1
  fold change: 1.7
Protein TB427.02.5820 HY[…], CONSERVED, vehicle control = 1
  fold change: 1.29
Protein TB427.02.5900 HY[…], CONSERVED, vehicle control = 1
  fold change: 1.1
Protein TB427.04.2060 HY[…], CONSERVED, vehicle control = 1
  fold change: 0.86
Protein TB427.05.1700 R[…] A 28 KDA SUBUNIT, PUTATIVE, vehicle control = 1
  fold change: 0.91
Protein TB427.05.550 VACUOLAR ATP SYNTHASE, PUTATIVE, vehicle control = 1
  fold change: 0.99
Protein TB427.06.4740 IMPORTIN-ALPHA RE-EXPORTER PROTEIN, PUTATIVE, vehicle control = 1
  fold change: 0.95
Protein TB427.07.3160 DYNEIN HEAVY CHAIN, CYTOSOLIC, PUTATIVE, vehicle control = 1
  fold change: 1.39
Protein TB427.07.4170 FATTY ACID ELONGASE, PUTATIVE, vehicle control = 1
  fold change: 1.39
Protein TB427.08.1420 ACYL-COA DEHYDROGENASE, MIT[…], PUTATIVE, vehicle control = 1
  fold change: 0.77
Protein TB427.08.1950 HY[…], CONSERVED, vehicle control = 1
  fold change: 0.98
Protein TB427.10.10360 MICROTUBULE-[…], PUTATIVE, vehicle control = 1
  fold change: 1.57
Protein TB427.10.1060 T-COMPLEX PROTEIN 1, DELTA SUBUNIT, PUTATIVE, vehicle control = 1
  fold change: 1.2
Protein TB427.10.12820 HY[…], CONSERVED, vehicle control = 1
  fold change: 1.41
Protein TB427.10.1450 HY[…], CONSERVED, vehicle control = 1
  fold change: 1.38
Protein TB427.10.15360 HY[…], CONSERVED, vehicle control = 1
  fold change: 0.93
Protein TB427.10.3210 DELTA-1-PYRROLINE-5-CARBOXYLATE DEHYDROGENASE, PUTATIVE, vehicle control = 1
  fold change: 0.98
Protein TB427.10.5770 VALOSIN-[…] HOMOLOG, vehicle control = 1
  fold change: 1.53
Protein TB427.10.5850 HY[…], CONSERVED, vehicle control = 1
  fold change: 1.29
Protein TB927.10.12740 HY[…], CONSERVED,ZINC FINGER PROTEIN FAMILY MEMEBER, PUTATIVE, vehicle control = 1
  fold change: 0.93
Protein TB927.10.14170 AQUAPORIN 9, PUTATIVE, vehicle control = 1
  fold change: 2.84
Protein TB927.10.14820 MIT[…] PROTEIN, PUTATIVE, vehicle control = 1
  fold change: 0.9
Protein TB927.10.2640 INTR[…] PROTEIN IFT81, PUTATIVE, vehicle control = 1
  fold change: 0.98
Protein TB927.10.2890 ENOLASE, vehicle control = 1
  fold change: 0.87
Protein TB927.10.6050 CLATHRIN HEAVY CHAIN, vehicle control = 1
  fold change: 0.96
Protein TB927.10.9740 […] SUBUNIT 6, vehicle control = 1
  fold change: 1.44
Protein TB927.4.3630 PROTEIN PHOSPHATASE 1, PUTATIVE, vehicle control = 1
  fold change: 0.99
Protein TB927.6.2360 ADENOSINE KINASE, PUTATIVE, vehicle control = 1
  fold change: 0.97
Protein TB927.8.4810 PROHIBITIN 1, vehicle control = 1
  fold change: 0.98
Vs vehicle control, protein HA-UBIQUITIN (CZB00000046.1)
  fold change: 0.93
Vs vehicle control, protein TB09.160.2360 POLY(A) EXPORT PROTEIN, PUTATIVE
  fold change: 1
Vs vehicle control, protein TB09.211.4460 ADP-RI[…], PUTATIVE
  fold change: 0.97
Vs vehicle control, protein TB11.01.3180 GUANINE NUCLEOTIDE-BINDING PROTEIN BETA SUBUNIT-LIKE PROTEIN
  fold change: 0.89
Vs vehicle control, protein TB11.01.5860 T-COMPLEX PROTEIN 1, EPSILON SUBUNIT, PUTATIVE
  fold change: 0.95
Vs vehicle control, protein TB11.01.8740 PROTEIN PHOSPHATASE 4, PUTATIVE
  fold change: 0.99
Vs vehicle control, protein TB11.02.1220 […] SUBUNIT 2
  fold change: 1
Vs vehicle control, protein TB427TMP.01.1540 HY[…], CONSERVED
  fold change: 1
Vs vehicle control, protein TB427TMP.01.5000 HY[…], CONSERVED
  fold change: 0.97
Vs vehicle control, protein TB427TMP.01.8470 DIHYDROLIPOYL DEHYDROGENASE
  fold change: 1
Vs vehicle control, protein TB427TMP.02.1690 HY[…], CONSERVED
  fold change: 0.93
Vs vehicle control, protein TB427TMP.160.2220 HY[…], CONSERVED
  fold change: 1
Vs vehicle control, protein TB427TMP.160.3820 NUCLEOLAR RNA BINDING PROTEIN, PUTATIVE
  fold change: 0.99
Vs vehicle control, protein TB427TMP.211.2730 GIM5A PROTEIN
  fold change: 0.77
Vs vehicle control, protein TB427TMP.211.4170 HY[…], CONSERVED
  fold change: 0.91
Vs vehicle control, protein TB427.02.4130 ENOYL-COA HYDRATASE/ENOYL-COA ISOMERASE/3-HYDROXYACYL-COA DEHYDROGENASE, PUTATIVE
  fold change: 0.99
Vs vehicle control, protein TB427.02.5850 SMALL NUCLEAR RIBONUCLEOPROTEIN SMD2
  fold change: 0.93
Vs vehicle control, protein TB427.03.1790 PYRUVATE DEHYDROGENASE E1 BETA SUBUNIT, PUTATIVE
  fold change: 0.99
Vs vehicle control, protein TB427.04.4300 HY[…], CONSERVED
  fold change: 0.96
Vs vehicle control, protein TB427.05.2890 HY[…], CONSERVED
  fold change: 0.73
Vs vehicle control, protein TB427.05.4460 MAJOR VAULT PROTEIN, PUTATIVE
  fold change: 0.76
Vs vehicle control, protein TB427.06.1500 ALKYL-DIHYDR[…] SYNTHASE
  fold change: 0.98
Vs vehicle control, protein TB427.06.2250 RAC SERINE-THREONINE KINASE, PUTATIVE
  fold change: 0.96
Vs vehicle control, protein TB427.06.3630 SPHINGOSINE 1-PHOSPHATE LYASE, PUTATIVE
  fold change: 0.93
Vs vehicle control, protein TB427.06.4480 VALYL-TRNA SYNTHETASE, PUTATIVE
  fold change: 0.99
Vs vehicle control, protein TB427.06.4770 HY[…], CONSERVED
  fold change: 0.91
Vs vehicle control, protein TB427.07.2560 HY[…], CONSERVED
  fold change: 0.99
Vs vehicle control, protein TB427.07.3370 HY[…], CONSERVED
  fold change: 0.92
Vs vehicle control, protein TB427.07.4570 INOSINE-GUANINE […]
  fold change: 0.98
Vs vehicle control, protein TB427.08.2460 HY[…], CONSERVED
  fold change: 0.83
Vs vehicle control, protein TB427.08.3530 GLYCEROL-3-PHOSPHATE DEH[…]+], GLYCOSOMAL
  fold change: 0.95
Vs vehicle control, protein TB427.10.12890 BI[…]-TRNA SYNTHETASE, PUTATIVE
  fold change: 0.84
Vs vehicle control, protein TB427.10.13660 HY[…], CONSERVED
  fold change: 1.1
Vs vehicle control, protein TB427.10.14890 C-TERMINAL MOTOR KINESIN, PUTATIVE
  fold change: 0.95
Vs vehicle control, protein TB427.10.1510 NOT1
  fold change: 0.92
Vs vehicle control, protein TB427.10.7740 PROTEIN TRANSPORT PROTEIN SEC23
  fold change: 0.96
Vs vehicle control, protein TB427.10.8190 T-COMPLEX PROTEIN 1, THETA SUBUNIT, PUTATIVE
  fold change: 0.97
Vs vehicle control, protein TB427.10.8850 HY[…], CONSERVED
  fold change: 0.93
Vs vehicle control, protein TB927.10.12330 HY[…], CONSERVED
  fold change: 0.95
Vs vehicle control, protein TB927.10.2100 […] 1-ALPHA
  fold change: 0.96
Vs vehicle control, protein TB927.10.8160 HY[…], CONSERVED
  fold change: 0.95
Vs vehicle control, protein TB927.2.2770 HY[…] TB927 2 2770
  fold change: 0.91
Vs vehicle control, protein TB927.2.4930 ESTERASE, PUTATIVE
  fold change: 0.93
Vs vehicle control, protein TB927.3.1370 RIBOSOMAL PROTEIN S25, PUTATIVE
  fold change: 0.89
Vs vehicle control, protein TB927.3.3270 ATP-DEPENDENT PHOSPHOFRUCTOKINASE
  fold change: 0.84
Vs vehicle control, protein TB927.5.4440 DYNEIN LIGHT CHAIN, PUTATIVE
  fold change: 0.96
Vs vehicle control, protein TB927.5.960 HY[…], CONSERVED
  fold change: 0.95
Vs vehicle control, protein TB927.7.2750 PROTEIN KINASE, PUTATIVE
  fold change: 0.89
Vs vehicle control, protein TB927.8.4610 SMALL GTP-BINDING PROTEIN RAB1
  fold change: 0.93
